{"source": "patent US11939312B2", "about": "“Enantiomeric entactogen compositions and their use” (Arcadia Medicine, Inc., priority 2021, dated 2024)", "origin": "cited, not measured here", "conditions": "initial dose MDMA HCl; cited from earlier work", "note": "At least one compound was matched to its structure with a doubt left.", "data": [{"smiles": "CNC(C)Cc1ccc2c(c1)OCO2", "note": "(racemic) [racemic MDMA, 3,4-methylenedioxymethamphetamine]", "values": [{"measurement": "Maximum Recommended Starting Dose (MRSD)", "result": 80, "unit": "mg-120 mg initial"}]}]}
